Data published in article PMC10620030, “New Organotin (IV) Compounds Derived from Dehydroacetic Acid and Thiosemicarbazides: Synthesis, Rational Design, Cytotoxic Evaluation, and Molecular Docking Simulation” (Bioinorganic Chemistry and Applications, 2023).

What was measured:
[1] = system: MCF-7 (human mammary adenocarcinoma) cell line; assay: sulforhodamine B (SRB) cytotoxicity assay on MCF-7; format: cell-based; details: MCF-7 compared to normal cell line COS-7
Procedure: (§1) The compounds were screened in vitro against two cancer cell lines, MCF-7 and MDA-MB-231 (human mammary adenocarcinoma), and the normal cell line Cos-7 (African green monkey kidney fibroblast). The MCF-7 and MDA-MB231 cell lines were cultured in RPMI-1640 medium, and Cos-7 was cultured in DMEM (Dulbecco's Modified Eagle's Medium) and supplemented with 10% of fetal bovine serum, 2 mM L-glutamine, 10000 units/ml penicillin G sodium, 10000 μg/ml streptomycin sulfate, 25 μg amphotericin B (Gibco), and 1% of nonessential amino acids (Gibco). The cell lines were maintained at 37°C in a humidified atmosphere with 5% CO2. The viability of the cells used in the experiments exceeded 95%, as determined with trypan blue.
(§2) The human tumor cytotoxicity was assessed using the protein-binding dye sulforhodamine B (SRB) in a microculture assay to measure the cell growth as described by. The human tumors and normal cells were treated with the complexes. The cells were removed from the tissue culture flask by treatment with trypsin and diluted with fresh media from the cell suspension to 100 μl containing 5000–10000 cells per well. The cells were then pipetted into 96 microliter plates (Costar) and incubated at 37°C for 24 h in a 5% CO2 atmosphere. Subsequently, 100 μl of a solution of the corresponding organotin complex at different concentrations was added to each well. […] After the incubation period, the cells were fixed to the plastic substratum by the addition of 50 μl of cold trichloroacetic acid (50% aqueous).
(§3) The plates were incubated at 4°C for one hour, washed with tap water, and air-dried. The addition of […] stained trichloroacetic acid-fixed cells. The free SRB was removed by washing with 1% aqueous acetic acid, the plates were air-dried, and the dyed was solubilized by adding ten mM unbuffered Tris base (100 μl). The plates were placed on a shaker for 10 min, and the absorption was measured at 515 nm using an ELISA plate reader (Bio-Tex Instruments).

[2] = system: MDA-MB-231 (human mammary adenocarcinoma) cell line; assay: sulforhodamine B (SRB) cytotoxicity assay on MDA-MB-231; format: cell-based; details: MDA-MB-231 compared to normal cell line COS-7
Procedure: as §1, §2, §3

[3] = system: ss-DNA; assay: isothermal titration calorimetry (ITC); format: binding; details: 25 °C

N.N.[Cl][Pt][Cl] [Cisplatin, reference compound]
selectivity index (SI) MCF-7 [1]: 1.35 | selectivity index (SI) MDA-MB-231 [2]: 0.26

CCC[CH2][Sn]1([CH2]CCC)[O]c2cc(C)oc(=O)c2C(C)=NN=C(N)[S]1 [Compound 1a, 4-Amino-2,2-dibutyl-7,10-dimethylpyrane[3,4-h]-1,3,5,6,2-oxathiadiazastannonin-8-one]
selectivity index (SI) MCF-7 [1]: 1.23

CCCCCCC[CH2][Sn]1([CH2]CCCCCCC)[O]c2cc(C)oc(=O)c2C(C)=NN=C(N)[S]1 [Compound 1b, 4-Amino-2,2-dioctyl-7,10-dimethylpyrane-[3,4-h]-1,3,5,6,2-oxathiadiazastannonin-8-one]
selectivity index (SI) MCF-7 [1]: 1.40 | selectivity index (SI) MDA-MB-231 [2]: 1.10

CC1=NN=C(N)[S][Sn]([c]2ccccc2)([c]2ccccc2)[O]c2cc(C)oc(=O)c21 [Compound 1c, 4-Amino-2,2-diphenyl-7,10-dimethylpyrane[3,4-h]-1,3,5,6,2-oxathiadiazastannonin-8-one]
selectivity index (SI) MCF-7 [1]: 1.11 | ΔHb [3]: -3.775 ± 0.272 kcal/mol | −TΔSb [3]: -2.573 kcal/mol | ΔGb ([3]; from ΔG = −RT ln K): -6.3474 kcal/mol | nature of binding reaction with ss-DNA ([3]; ITC titration curve): exothermic | selectivity index (SI) MDA-MB-231 [2]: 4.00

CC1=NN=C(N)[S][Sn]([CH]2CCCCC2)([CH]2CCCCC2)[O]c2cc(C)oc(=O)c21 [Compound 1d, 4-Amino-2,2-dicyclohexyl-7,10-dimethylpyrane[3,4-h]-1,3,5,6,2-oxathiadiazastannonin-8-one]
selectivity index (SI) MDA-MB-231 [2]: 1.51

CC1=NN=C(N)[S][Sn]([CH2][Si](C)(C)C)([CH2][Si](C)(C)C)[O]c2cc(C)oc(=O)c21 [Compound 1e, 4-Amino-2,2-bis(trimethylsilyl)methyl-7,10-dimethylpyrane[3,4-h]-1,3,5,6,2-oxathiadiazastannonin-8-one]
selectivity index (SI) MCF-7 [1]: 0.77 | selectivity index (SI) MDA-MB-231 [2]: 3.33

CCC[CH2][Sn]1([CH2]CCC)[O]c2cc(C)oc(=O)c2C(C)=NN=C(CN)[S]1 [Compound 2a, 2,2-Dibutyl-7,10-dimethyl-4-(aminomethyl) Pyrane[3,4-h]-1,3,5,6,2-oxathiadiazastannonin-8-one]
selectivity index (SI) MCF-7 [1]: 2.95 | selectivity index (SI) MDA-MB-231 [2]: 2.00

CCCCCCC[CH2][Sn]1([CH2]CCCCCCC)[O]c2cc(C)oc(=O)c2C(C)=NN=C(NC)[S]1 [Compound 2b, 2,2-Dioctyl-7,10-dimethyl-4-(aminomethyl) Pyrane[3,4-h]-1,3,5,6,2-oxathiadiazastannonin-8-one]
selectivity index (SI) MCF-7 [1]: 8.33

CC1=NN=C(CN)[S][Sn]([c]2ccccc2)([c]2ccccc2)[O]c2cc(C)oc(=O)c21 [Compound 2c, 2,2-Diphenyl-7,10-dimethyl-4-(aminomethyl) Pyrane[3,4-h]-1,3,5,6,2-oxathiadiazastannonin-8-one]
selectivity index (SI) MCF-7 [1]: 1.06 | selectivity index (SI) MDA-MB-231 [2]: 1.13

CC1=NN=C(CN)[S][Sn]([CH]2CCCCC2)([CH]2CCCCC2)[O]c2cc(C)oc(=O)c21 [Compound 2d, 2,2-Dicyclohexyl-7,10-dimethyl-4-(aminomethyl) Pyrane[3,4-h]-1,3,5,6,2-oxathiadiazastannonin-8-one]
selectivity index (SI) MCF-7 [1]: 1.40 | selectivity index (SI) MDA-MB-231 [2]: 3.21

CC1=NN=C(CN)[S][Sn]([CH2][Si](C)(C)C)([CH2][Si](C)(C)C)[O]c2cc(C)oc(=O)c21 [Compound 2e, 2,2-Bis(trimethylsilyl)methyl-7,10-dimethyl-4-(aminomethyl) Pyrane[3,4-h]-1,3,5,6,2-oxathiadiazastannonin-8-one]
selectivity index (SI) MCF-7 [1]: 1.93 | selectivity index (SI) MDA-MB-231 [2]: 2.41

CCC[CH2][Sn]1([CH2]CCC)[O]c2cc(C)oc(=O)c2C(C)=NN=C(Nc2ccccc2)[S]1 [Compound 3a, 2,2-Dibutyl-7,10-dimethyl-4-(aminophenyl) Pyrane[3,4-h]-1,3,5,6,2-oxathiadiazastannonin-8-one]
selectivity index (SI) MCF-7 [1]: 1.61 | selectivity index (SI) MDA-MB-231 [2]: 3.40

CCCCCCC[CH2][Sn]1([CH2]CCCCCCC)[O]c2cc(C)oc(=O)c2C(C)=NN=C(Nc2ccccc2)[S]1 [Compound 3b, 2,2-Dioctyl-7,10-dimethyl-4-(aminophenyl) Pyrane[3,4-h]-1,3,5,6,2-oxathiadiazastannonin-8-one]
selectivity index (SI) MCF-7 [1]: 2.19 | selectivity index (SI) MDA-MB-231 [2]: 2.96

CC1=NN=C(Nc2ccccc2)[S][Sn]([c]2ccccc2)([c]2ccccc2)[O]c2cc(C)oc(=O)c21 [Compound 3c, 2,2-Diphenyl-7,10-dimethyl-4-(aminophenyl) Pyrane[3,4-h]-1,3,5,6,2-oxathiadiazastannonin-8-one]
selectivity index (SI) MCF-7 [1]: 1.56 | selectivity index (SI) MDA-MB-231 [2]: 0.51

CC1=NN=C(Nc2ccccc2)[S][Sn]([CH]2CCCCC2)([CH]2CCCCC2)[O]c2cc(C)oc(=O)c21 [Compound 3d, 2,2-Dicyclohexyl-7,10-dimethyl-4-(aminophenyl) Pyrane[3,4-h]-1,3,5,6,2-oxathiadiazastannonin-8-one]
selectivity index (SI) MCF-7 [1]: 1.00

CC1=NN=C(Nc2ccccc2)[S][Sn]([CH2][Si](C)(C)C)([CH2][Si](C)(C)C)[O]c2cc(C)oc(=O)c21 [Compound 3e, 2,2-Bis(trimethylsilyl)methyl-7,10-dimethyl-4-(aminophenyl) Pyrane[3,4-h]-1,3,5,6,2-oxathiadiazastannonin-8-one]
selectivity index (SI) MCF-7 [1]: 6.25 | selectivity index (SI) MDA-MB-231 [2]: 1.79
